Experimental data: patent publication US12616681B2, “Compositions and methods for treating renal injury” (priority 2019, dated 2026)
At least one compound was matched to its structure with a doubt left.

What was measured:
[1] = tested on: mice with ischemic AKI (bilateral renal IRI); assay: Renal IRI (ischemic AKI) mouse model: renal function markers; type: in vivo, C57/BL6 mice; conditions: 24 h after renal IRI, vs IRI-vehicle mice; dosing before and after IRI
Method: Briefly, mice were anesthetized with isoflurane using a vaporizer, and bilateral renal arteries were clamped for 30 min (2, 49). After the ischemic time, clamps were released to induce blood reperfusion. […] Serum and kidney tissue were collected 24 h after renal IRI. […] After reperfusion for 24 h, kidney tissues (˜20 mg) were homogenized in cold PBS containing indomethacin (10 μg/mL) and then centrifuged for 10 min at 12,000 rpm. Protein concentrations of supernatant were determined by BCA assay (ThermoFisher Scientific, Rockford, IL). The PGE2 level was measured using a PGE2 ELISA kit (R&D Systems, Minneapolis, MN) in triplicate. PGE2 levels were expressed as nanograms of PGE2 per milligram of protein. Renal function was assessed by determining the serum levels of blood urea nitrogen (BUN; Abcam), serum creatinine (Agilent 6410 LC-MS/MS, Agilent, Santa Clara, CA), lipocalin-2 (R&D Systems), and kidney injury molecule-1 (KIM-1; R&D Systems) after reperfusion for 24 h. Measurement of serum creatinine was by HPLC. Serum creatinine was assessed using an Agilent 6410 LC-MS/MS system coupled with an Agilent 1200 series HPLC system (Agilent). […] The multiple-reaction monitoring mode using specific precursor/production transition was used for quantification. […]

[2] = tested on: mice with ischemic AKI (bilateral renal IRI); assay: Renal IRI model: renal vasodilation and renal Doppler flux (RBF); type: in vivo, C57/BL6 mice; conditions: 24 h following IRI
Method: The inner arteriolar area of the outer medulla was determined using α-smooth muscle actin (α-SMA)-stained sections. Kidneys were removed without perfusion under inhalational isoflurane anesthesia, divided into three pieces horizontally, immediately fixed in 10% formalin, and then embedded in paraffin. The inner area of α-SMA-positive vessels in the outer medulla was measured using ImageJ. The results are expressed as average areas of renal arteries in the outer medulla. As a surrogate for RBF, we used noninvasive laser Doppler flowmetry (periflux system 5000, Perimed) to measure flux, placing laser-Doppler probes at a fixed position on the kidney surface and recording renal cortical measurements. […] The relative increase represents the percent increase in RDF from baseline to peak for each test.

`Cc1ccc(-c2cc(C(F)(F)F)nn2-c2ccc(S(N)(=O)=O)cc2)cc1` [celecoxib, reference compound] was tested, and the “BUN (serum)” value [1] was “increase”, the “creatinine (serum)” value [1] was “increase” and the “RDF-inferred RBF” value [2] was “reduced”.
